Some of the results follow.
Key:
Test in all cases: glycan array binding signal (z-score within array); higher = stronger binding
Conditions in all cases: glycan notation: IUPAC condensed, linker removed
[1] = biological target: Glc(b1-6)Glc
Summary of the method: (§1)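 The binding signal is a Z-score computed within each array and averaged over linkers. Arrays of the same protein sequence at different concentrations or buffers were also averaged together. Data originate from 3228 arrays in the Consortium for Functional Glycomics database, kept only where the protein sequence was available.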

[2] = biological target: GlcA(b1-3)Gal
Summary of the method: as §1

[3] = biological target: GlcA(b1-3)GlcNAc
Summary of the method: as §1

[4] = biological target: GlcA(b1-6)Gal
Summary of the method: as §1

[5] = biological target: GlcA3S(b1-3)Gal(b1-4)GlcNAc(b1-2)Man
Summary of the method: as §1

[6] = biological target: GlcA3S(b1-3)Gal(b1-4)GlcNAc(b1-3)Gal(b1-4)Glc
Summary of the method: as §1

[7] = biological target: GlcNAc(a1-3)Gal(b1-4)GlcNAc
Summary of the method: as §1

[8] = biological target: GlcNAc(a1-4)Gal(b1-3)GlcNAc
Summary of the method: as §1

[9] = biological target: GlcNAc(a1-4)Gal(b1-4)GalNAc
Summary of the method: as §1

[10] = biological target: GlcNAc(a1-4)Gal(b1-4)GlcNAc
Summary of the method: as §1

[11] = biological target: GlcNAc(a1-4)Gal(b1-4)GlcNAc(b1-3)Gal(b1-4)Glc
Summary of the method: as §1

[12] = biological target: GlcNAc(a1-4)Gal(b1-4)GlcNAc(b1-3)Gal(b1-4)GlcNAc
Summary of the method: as §1

[13] = biological target: GlcNAc(a1-4)Gal(b1-4)GlcNAc(b1-3)Gal(b1-4)GlcNAc(b1-3)Gal(b1-4)GlcNAc
Summary of the method: as §1

[14] = biological target: GlcNAc(a1-4)Gal(b1-4)GlcNAc(b1-3)Gal(b1-4)[Fuc(a1-3)]GlcNAc(b1-3)Gal(b1-4)[Fuc(a1-3)]GlcNAc
Summary of the method: as §1

[15] = biological target: GlcNAc(a1-6)Gal(b1-4)GlcNAc
Summary of the method: as §1

[16] = biological target: GlcNAc(b1-2)Gal(b1-3)GalNAc
Summary of the method: as §1

[17] = biological target: GlcNAc(b1-2)Man(a1-3)[GlcNAc(b1-2)Man(a1-6)]Man(b1-4)GlcNAc(b1-4)GlcNAc
Summary of the method: as §1

[18] = biological target: GlcNAc(b1-2)Man(a1-3)[GlcNAc(b1-2)Man(a1-6)]Man(b1-4)GlcNAc(b1-4)[Fuc(a1-6)]GlcNAc
Summary of the method: as §1

[19] = biological target: GlcNAc(b1-2)Man(a1-3)[GlcNAc(b1-4)][GlcNAc(b1-2)Man(a1-6)]Man(b1-4)GlcNAc(b1-4)GlcNAc
Summary of the method: as §1

[20] = biological target: GlcNAc(b1-2)Man(a1-3)[GlcNAc(b1-4)][GlcNAc(b1-2)Man(a1-6)]Man(b1-4)GlcNAc(b1-4)[Fuc(a1-6)]GlcNAc
Summary of the method: as §1

[21] = biological target: GlcNAc(b1-2)[GlcNAc(b1-4)]Man(a1-3)[GlcNAc(b1-2)Man(a1-6)]Man(b1-4)GlcNAc(b1-4)GlcNAc
Summary of the method: as §1

[22] = biological target: GlcNAc(b1-2)[GlcNAc(b1-4)]Man(a1-3)[GlcNAc(b1-4)][GlcNAc(b1-2)Man(a1-6)]Man(b1-4)GlcNAc(b1-4)GlcNAc
Summary of the method: as §1

[23] = biological target: GlcNAc(b1-2)[GlcNAc(b1-4)]Man(a1-3)[GlcNAc(b1-4)][GlcNAc(b1-2)[GlcNAc(b1-6)]Man(a1-6)]Man(b1-4)GlcNAc(b1-4)GlcNAc
Summary of the method: as §1

[24] = biological target: GlcNAc(b1-2)[GlcNAc(b1-4)]Man(a1-3)[GlcNAc(b1-4)][GlcNAc(b1-2)[GlcNAc(b1-6)]Man(a1-6)]Man(b1-4)GlcNAc(b1-4)[Fuc(a1-6)]GlcNAc
Summary of the method: as §1

[25] = biological target: GlcNAc(b1-2)[GlcNAc(b1-6)]Man(a1-6)[GlcNAc(b1-2)Man(a1-3)]Man(b1-4)GlcNAc(b1-4)GlcNAc
Summary of the method: as §1

[26] = biological target: GlcNAc(b1-2)[GlcNAc(b1-6)]Man(a1-6)[GlcNAc(b1-2)Man(a1-3)]Man(b1-4)GlcNAc(b1-4)[Fuc(a1-6)]GlcNAc
Summary of the method: as §1

[27] = biological target: GlcNAc(b1-2)[GlcNAc(b1-6)]Man(a1-6)[GlcNAc(b1-4)][GlcNAc(b1-2)Man(a1-3)]Man(b1-4)GlcNAc(b1-4)GlcNAc
Summary of the method: as §1

[28] = biological target: GlcNAc(b1-3)Fuc
Summary of the method: as §1

[29] = biological target: GlcNAc(b1-3)Gal
Summary of the method: as §1

[30] = biological target: GlcNAc(b1-3)Gal(b1-3)GalNAc
Summary of the method: as §1

[31] = biological target: GlcNAc(b1-3)Gal(b1-4)Glc
Summary of the method: as §1

[32] = biological target: GlcNAc(b1-3)Gal(b1-4)GlcNAc
Summary of the method: as §1

[33] = biological target: GlcNAc(b1-3)Gal(b1-4)GlcNAc(b1-2)Man(a1-3)[GlcNAc(b1-3)Gal(b1-4)GlcNAc(b1-2)Man(a1-6)]Man(b1-4)GlcNAc(b1-4)GlcNAc
Summary of the method: as §1

[34] = biological target: GlcNAc(b1-3)Gal(b1-4)GlcNAc(b1-2)Man(a1-3)[GlcNAc(b1-3)Gal(b1-4)GlcNAc(b1-2)Man(a1-6)]Man(b1-4)GlcNAc(b1-4)[Fuc(a1-6)]GlcNAc
Summary of the method: as §1

[35] = biological target: GlcNAc(b1-3)Gal(b1-4)GlcNAc(b1-2)[GlcNAc(b1-3)Gal(b1-4)GlcNAc(b1-6)]Man(a1-6)[GlcNAc(b1-3)Gal(b1-4)GlcNAc(b1-2)Man(a1-3)]Man(b1-4)GlcNAc(b1-4)GlcNAc
Summary of the method: as §1

[36] = biological target: GlcNAc(b1-3)Gal(b1-4)GlcNAc(b1-3)Gal(b1-4)GlcNAc
Summary of the method: as §1

[37] = biological target: GlcNAc(b1-3)Gal(b1-4)GlcNAc(b1-3)Gal(b1-4)GlcNAc(b1-2)Man(a1-3)[GlcNAc(b1-3)Gal(b1-4)GlcNAc(b1-3)Gal(b1-4)GlcNAc(b1-2)Man(a1-6)]Man(b1-4)GlcNAc(b1-4)GlcNAc
Summary of the method: as §1

[38] = biological target: GlcNAc(b1-3)Gal(b1-4)GlcNAc(b1-3)Gal(b1-4)GlcNAc(b1-2)Man(a1-3)[GlcNAc(b1-3)Gal(b1-4)GlcNAc(b1-3)Gal(b1-4)GlcNAc(b1-2)Man(a1-6)]Man(b1-4)GlcNAc(b1-4)[Fuc(a1-6)]GlcNAc
Summary of the method: as §1

[39] = biological target: GlcNAc(b1-3)Gal(b1-4)GlcNAc(b1-3)Gal(b1-4)GlcNAc(b1-2)[GlcNAc(b1-3)Gal(b1-4)GlcNAc(b1-3)Gal(b1-4)GlcNAc(b1-6)]Man(a1-6)[GlcNAc(b1-3)Gal(b1-4)GlcNAc(b1-3)Gal(b1-4)GlcNAc(b1-2)Man(a1-3)]Man(b1-4)GlcNAc(b1-4)[Fuc(a1-6)]GlcNAc
Summary of the method: as §1

[40] = biological target: GlcNAc(b1-3)Gal(b1-4)GlcNAc(b1-3)Gal(b1-4)GlcNAc(b1-3)Gal(b1-4)GlcNAc(b1-2)Man(a1-3)[GlcNAc(b1-3)Gal(b1-4)GlcNAc(b1-3)Gal(b1-4)GlcNAc(b1-3)Gal(b1-4)GlcNAc(b1-2)Man(a1-6)]Man(b1-4)GlcNAc(b1-4)GlcNAc
Summary of the method: as §1

[41] = biological target: GlcNAc(b1-3)Gal(b1-4)GlcNAc(b1-3)Gal(b1-4)GlcNAc(b1-3)Gal(b1-4)GlcNAc(b1-2)Man(a1-3)[GlcNAc(b1-3)Gal(b1-4)GlcNAc(b1-3)Gal(b1-4)GlcNAc(b1-3)Gal(b1-4)GlcNAc(b1-2)Man(a1-6)]Man(b1-4)GlcNAc(b1-4)[Fuc(a1-6)]GlcNAc
Summary of the method: as §1

[42] = biological target: GlcNAc(b1-3)Gal(b1-4)GlcNAc(b1-3)Gal(b1-4)GlcNAc(b1-3)Gal(b1-4)GlcNAc(b1-2)[GlcNAc(b1-3)Gal(b1-4)GlcNAc(b1-3)Gal(b1-4)GlcNAc(b1-3)Gal(b1-4)GlcNAc(b1-6)]Man(a1-6)[GlcNAc(b1-3)Gal(b1-4)GlcNAc(b1-3)Gal(b1-4)GlcNAc(b1-3)Gal(b1-4)GlcNAc(b1-2)Man(a1-3)]Man(b1-4)GlcNAc(b1-4)[Fuc(a1-6)]GlcNAc
Summary of the method: as §1

[43] = biological target: GlcNAc(b1-3)Gal(b1-4)GlcNAc(b1-3)Gal(b1-4)GlcNAc(b1-3)Gal(b1-4)GlcNAc(b1-3)Gal(b1-4)GlcNAc(b1-2)Man(a1-3)[GlcNAc(b1-3)Gal(b1-4)GlcNAc(b1-3)Gal(b1-4)GlcNAc(b1-3)Gal(b1-4)GlcNAc(b1-3)Gal(b1-4)GlcNAc(b1-2)Man(a1-6)]Man(b1-4)GlcNAc(b1-4)GlcNAc
Summary of the method: as §1

[44] = biological target: GlcNAc(b1-3)Gal(b1-4)GlcNAc(b1-3)Gal(b1-4)GlcNAc(b1-3)Gal(b1-4)GlcNAc(b1-3)Gal(b1-4)GlcNAc(b1-2)Man(a1-3)[GlcNAc(b1-3)Gal(b1-4)GlcNAc(b1-3)Gal(b1-4)GlcNAc(b1-3)Gal(b1-4)GlcNAc(b1-3)Gal(b1-4)GlcNAc(b1-2)Man(a1-6)]Man(b1-4)GlcNAc(b1-4)[Fuc(a1-6)]GlcNAc
Summary of the method: as §1

[45] = biological target: GlcNAc(b1-3)Gal(b1-4)GlcNAc(b1-3)Gal(b1-4)GlcNAc(b1-3)Gal(b1-4)GlcNAc(b1-3)Gal(b1-4)GlcNAc(b1-2)[GlcNAc(b1-3)Gal(b1-4)GlcNAc(b1-3)Gal(b1-4)GlcNAc(b1-3)Gal(b1-4)GlcNAc(b1-3)Gal(b1-4)GlcNAc(b1-6)]Man(a1-6)[GlcNAc(b1-3)Gal(b1-4)GlcNAc(b1-3)Gal(b1-4)GlcNAc(b1-3)Gal(b1-4)GlcNAc(b1-3)Gal(b1-4)GlcNAc(b1-2)Man(a1-3)]Man(b1-4)GlcNAc(b1-4)[Fuc(a1-6)]GlcNAc
Summary of the method: as §1

B1: Lb MiSSP8 (Laccaria bicolor) (protein)
chain: MYFHTLFACATLMLITTAHASPTVINSLDSRKADLNGDVEARHAADWRRDSDWRRDSDWRRDSDWRRDSD
[1]
  glycan array binding signal (z-score): 0.526
[2]
  glycan array binding signal (z-score): -0.854
[3]
  glycan array binding signal (z-score): 3.78
[4]
  glycan array binding signal (z-score): -0.751
[5]
  glycan array binding signal (z-score): -0.688
[6]
  glycan array binding signal (z-score): -0.861
[7]
  glycan array binding signal (z-score): -0.205
[8]
  glycan array binding signal (z-score): -0.613
[9]
  glycan array binding signal (z-score): -0.474
[10]
  glycan array binding signal (z-score): -0.102
[11]
  glycan array binding signal (z-score): -0.488
[12]
  glycan array binding signal (z-score): -0.688
[13]
  glycan array binding signal (z-score): -0.827
[14]
  glycan array binding signal (z-score): 0.375
[15]
  glycan array binding signal (z-score): -0.116
[16]
  glycan array binding signal (z-score): 1.43
[17]
  glycan array binding signal (z-score): -0.557
[18]
  glycan array binding signal (z-score): -0.088
[19]
  glycan array binding signal (z-score): -0.219
[20]
  glycan array binding signal (z-score): -0.723
[21]
  glycan array binding signal (z-score): -0.682
[22]
  glycan array binding signal (z-score): -0.64
[23]
  glycan array binding signal (z-score): -0.744
[24]
  glycan array binding signal (z-score): -0.468
[25]
  glycan array binding signal (z-score): -0.405
[26]
  glycan array binding signal (z-score): 0.161
[27]
  glycan array binding signal (z-score): -0.626
[28]
  glycan array binding signal (z-score): 0.395
[29]
  glycan array binding signal (z-score): -0.868
[30]
  glycan array binding signal (z-score): -0.229
[31]
  glycan array binding signal (z-score): -0.136
[32]
  glycan array binding signal (z-score): -1.03
[33]
  glycan array binding signal (z-score): 0.257
[34]
  glycan array binding signal (z-score): 2.31
[35]
  glycan array binding signal (z-score): 0.54
[36]
  glycan array binding signal (z-score): -0.827
[37]
  glycan array binding signal (z-score): 2.57
[38]
  glycan array binding signal (z-score): 2.43
[39]
  glycan array binding signal (z-score): 1.4
[40]
  glycan array binding signal (z-score): 2.07
[41]
  glycan array binding signal (z-score): 2.57
[42]
  glycan array binding signal (z-score): 1.56
[43]
  glycan array binding signal (z-score): 0.25
[44]
  glycan array binding signal (z-score): 0.409
[45]
  glycan array binding signal (z-score): 0.119

— the supplement of paper PMC8728848
